Test: Sensory evaluation of aroma reconstruction targeting a single aroma component <3-2> (196 test substances)
Set-up: species or system human
Conditions: reference Test 1 (−)-carvone, Test 2 trans-anethole, Test 3 syringol, Test 4 sotolon; for Similarity (sensory similarity to the target aroma): median of all replicates, blind, n=4x3 times, 5-point scale, 0 not similar at all to 4 extremely similar; for Corresponding evaluation labels: scale labels matching the median score
From the text: The four types of substances shown in Table 6 were selected and used as target aromas. Olfactory receptor activity profiles of the targets in an olfactory receptor activity database were set as target profiles.
For each target, 196 types of substances obtained by excluding the target from the olfactory receptor activity database were used as a test substance group, and olfactory receptor activity profiles of these test substances were set as a test substance group profile.
Using the target profile as an objective variable (352 points×1 variable), and the test substance group profile as explanatory variables (352 points×196 variables), nonnegative constraint linear sparse modeling was performed to obtain a composite profile that approximates the target profile, and coefficients of the variables (the combination ratios of the receptor activity profiles of two or more target substances that provide the composite profile). Specifically, a LASSO (least absolute shrinkage and selection operator) regression model was used. The intercept of the model was set to 0. Using a parameter λ that defines the strength of regularization, optimization was performed such that the number of variables having a coefficient greater than 0 (the number of two or more target substances that provide the composite profile) was not more than 4. A mixing ratio of the target substances was determined according to the ratio of the coefficients of the model.
The target substances were mixed according to the calculated mixing ratio, to prepare a reconstructed product. For sensory evaluation, each of the target and the reconstructed product was diluted to a concentration at which the aroma could be smelled without difficulty.
The sensory evaluation was carried out in a blind manner (n=4×3 times). A target aroma was presented to each panelist as a reference sample. Subsequently, as an evaluation sample, the target aroma or the aroma of the reconstructed product was presented in a blind manner. Each panelist evaluated how similar the quality of aroma of each evaluation sample was to the quality of aroma of the reference sample, using a 5-point scale (0 point: not similar at all, 1 point: slightly similar, 2 points: moderately similar, 3 points: very similar, 4 points: extremely similar). Each test was carried out by each subject in three replicates on different days. For each evaluation sample, the median of the scores in all replicates by all panelists was calculated to determine the “sensory similarity” to the target aroma.

Compound | Similarity (sensory similarity to the target aroma) | Corresponding evaluation labels
COc1cccc(OC)c1O [Test 3 Target, syringol] | 4.0 | “extremely similar”
CC1=C(O)C(=O)OC1C (stereo not shown) [Test 4 Target, sotolon] | 4.0 | “extremely similar”
